# Experimental data from PubChem BioAssay AID485314 (National Center for Advancing Translational Sciences (NCATS), 2010).
# The whole screen tested about 340,000 compounds, of which about 4,500 (1.3%) were called active. This list was built around the results that the source calls inconclusive (neither active nor inactive); the mix of calls is not that of the screen. Calls follow the shape of the dose curve; as a rule, active = well fitted inhibition curve with a large enough effect; inconclusive = small, poorly fitted or top-dose-only effect, or another doubt; inactive = no such curve, though single readings can be large or run the other way. Where the call is inconclusive, the potency comes from a doubtful curve fit.
# Target: DNA polymerase beta (Homo sapiens) (UniProt P06746)
# Assay: qHTS Assay for Inhibitors of DNA Polymerase Beta
# Settings: Pol beta primer extension/strand displacement, fluorescence kinetic; activity change, negative = inhibition: at 114 µM (top of the series)
# Outline: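 10 nM enzyme + cpd, 15 min RT; start with substrate 50 nM final; read 0 min and after 10 min RT. Corrected, normalized data; 4-parameter Hill curve fit.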
# % is scaled to controls: 0 for no effect and ±100 for the full control effect; potency is read from the fitted curve at half-maximal effect.
SMILES,"activity change, negative = inhibition",Potency
Nc1c(C(=O)Nc2ccc(S(=O)(=O)N3CCCC3)cc2)sc2nc3cc4c(cc3cc12)CCC4,inactive: -10.4%,
Cc1ccc2nc(-c3ccc(Br)o3)oc(=O)c2c1,,"inconclusive: 89.1 µM [inhibitor, single point]"
N/C(Cc1ccc(Cl)cc1Cl)=N\OC(=O)c1ccc(Br)o1,,"inconclusive: 20 µM [inhibitor, full curve]"
O=C1N=C(N2CCN(c3ccccc3)CC2)S/C1=C/c1cccs1,inactive: 2.57%,
CC1CCCCN1C(=O)c1cc2c(=O)n3ccccc3nc2s1 (configuration not stated),inactive: 0.595%,
NC(=O)c1cc[n+](CC2=C(C(=O)O)N3C(=O)[C@@H](NC(=O)[C@@H](c4ccccc4)S(=O)(=O)[O-])[C@H]3SC2)cc1,,active: 10 µM
COc1ccccc1CCNC(=O)Cc1c(C)c2cc3c(C)coc3cc2oc1=O,inactive: -0.292%,
Cc1ccc(C(=O)Nc2ccc(S(=O)(=O)Nc3onc(C)c3C)cc2)cc1,inactive: 4.78%,
COC(=O)c1cn(C(=O)c2ccc(Cl)cc2)c2ccccc12,,"inconclusive: 89.1 µM [inhibitor, single point]"
Cc1ccc(Cl)cc1N1CCN(CCCNC(=O)C2COc3ccccc3C2)CC1 (configuration not stated),inactive: 4.58%,
COc1ccc(-n2c(C)cc(/C=C3\C(=O)NN(c4ccccc4)C3=O)c2C)cc1,,"inconclusive: 15.8 µM [inhibitor, full curve, poor fit]"
COc1ccc(Cl)cc1Nc1cc(C)nc2nc(C)nn12,,"inconclusive: 100 µM [inhibitor, single point]"
Cc1ccc(N(C)C(=O)CCS(=O)(=O)c2cc3c(cc2Cl)NC(=O)CO3)cc1,,"inconclusive: 89.1 µM [inhibitor, single point]"
COc1ccc(C(=O)NCCn2cc(SC(C)c3ccccc3)c3ccccc32)cc1OC (configuration not stated),inactive: -10.8%,
O=C(CSc1nnc(-c2ccco2)n1CC1CCCO1)c1ccc(F)cc1 (configuration not stated),inactive: 26.2%,
CCOc1ccc(-c2nnc(SCC(=O)c3ccc(Br)cc3)n2-c2ccccc2)cc1,inactive: -14.9%,
Cc1ccc(/C=C/C(=O)N2CCN(Cc3ccccc3)CC2)o1,inactive: 0.69%,
O=C(CN1C(=O)CCc2cc(S(=O)(=O)N3CCOCC3)ccc21)NCc1ccc(Cl)cc1,inactive: 24.2%,
COc1ccc(CNn2c(-c3cccc(C)c3)nc3ccccc3c2=O)cc1OC,,"inconclusive: 70.8 µM [inhibitor, single point]"
CCOC(=O)C1CCCN(c2ncnc3c2nnn3C)C1 (configuration not stated),inactive: -4.26%,
COc1ccccc1OCCC(=O)OCC(=O)Nc1ccc(Br)cc1F,inactive: 7.47%,
O=[N+]([O-])c1ccc(C(=S)N2CCN(c3ccc(F)cc3)CC2)cc1,inactive: 14.4%,
COc1ccc(C(=O)NCCCSC)cc1OC1CCN(C(C)C)CC1,inactive: 7.35%,
CC1CCc2sc(-c3n[nH]c(=S)o3)cc2C1 (configuration not stated),inactive: -2.86%,

# Reprinted at random: 2 entries already listed, in no set order.
SMILES,"activity change, negative = inhibition",Potency
Nc1c(C(=O)Nc2ccc(S(=O)(=O)N3CCCC3)cc2)sc2nc3cc4c(cc3cc12)CCC4,inactive: -10.4%,
O=C(CN1C(=O)CCc2cc(S(=O)(=O)N3CCOCC3)ccc21)NCc1ccc(Cl)cc1,inactive: 24.2%,

# Next part.

SMILES,"activity change, negative = inhibition",Potency
Cc1sc(NC(=O)c2ccco2)c(C(c2cccnc2)N2CCN(CCO)CC2)c1C (configuration not stated),,"inconclusive: 0.126 µM [inhibitor, full curve, poor fit]"
CCOC(=O)CC1=C(C(=O)OCC)C(c2ccc(C)o2)C(C#N)=C(N)O1 (configuration not stated),,"inconclusive: 79.4 µM [inhibitor, single point]"
Cc1ccc(NC(=O)CSc2nnc(-c3ccc(Br)cc3)o2)c(C)c1,,"inconclusive: 89.1 µM [inhibitor, single point]"
Cc1cccc(NC(=O)C2CCCN(S(=O)(=O)c3ccc(Br)s3)C2)c1 (configuration not stated),,"inconclusive: 100 µM [inhibitor, single point]"
CC(Sc1nc2ccccc2s1)C(=O)N(C)Cc1ccccc1 (configuration not stated),,"inconclusive: 17.8 µM [inhibitor, partial curve]"
Cc1ccc(NNS(=O)(=O)c2ccc(C)cc2)cc1,inactive: 1.58%,
CC(O/N=C/c1ccc(OC(F)F)cc1)C(=O)Nc1cccc(S(=O)(=O)N2CCOCC2)c1 (configuration not stated),,"inconclusive: 0.794 µM [inhibitor, full curve, poor fit]"
CCc1ccc(NC(=O)CCc2nnc3n(C)c(=O)c4sccc4n23)cc1,inactive: 0.389%,
CCc1ccc(-n2nc(CO)c(C(=O)NC(C)c3ccc(Cl)cc3)n2)cc1 (configuration not stated),inactive: 9.45%,
CCc1ccc(NC(=O)Nc2cn(C)c(=O)c3ccccc23)cc1,inactive: -18.3%,
COc1ccccc1CCNC(=O)Cc1cccs1,inconclusive: -32.7% [inhibitor],
CCc1ccc(S(=O)(=O)/N=C2\C=C(NS(=O)(=O)c3ccccc3)C(=O)c3ccccc32)cc1,,"inconclusive: 79.4 µM [inhibitor, single point]"
O=S(=O)(Cc1cc(Cl)nc(-c2ccncc2)n1)c1ccccc1,,"inconclusive: 0.355 µM [inhibitor, full curve, poor fit]"
CSc1oc(-c2ccco2)nc1S(=O)(=O)c1ccc(F)cc1,,"inconclusive: 89.1 µM [inhibitor, single point]"
COc1cccc(OC)c1C(=O)N1CCN(Cc2ccccc2C(F)(F)F)CC1,,"inconclusive: 89.1 µM [inhibitor, single point]"
CCN(CC)CCCN(C(=O)c1ccc(Br)cc1)c1nc(-c2ccc(OC)cc2)cs1,,"inconclusive: 31.6 µM [inhibitor, full curve, poor fit]"
O=C(O)/C=C/c1ccc(O)c(O)c1,,"inconclusive: 15.8 µM [inhibitor, full curve, poor fit]"
CCOC(=O)c1ccc(N2C(=O)c3n[nH]c(-c4ccco4)c3C2c2ccc(OC)cc2OC)cc1 (configuration not stated),,"inconclusive: 2.24 µM [inhibitor, single point]"
CC1CCC/C(=N\Nc2ccc(Cl)c(C(=O)O)c2)C1 (configuration not stated),,active: 31.6 µM
CCCn1c(SCc2nc(N)nc(N3CCCCC3)n2)nc2c1c(=O)n(C)c(=O)n2C,,"inconclusive: 56.2 µM [inhibitor, partial curve, poor fit]"
CC(=O)c1ccc(NC(=O)Nc2ccc3snnc3c2)cc1,,"inconclusive: 79.4 µM [inhibitor, single point]"
CCNC(=O)c1ccc(NS(=O)(=O)c2ccccc2)cc1,,"inconclusive: 89.1 µM [inhibitor, single point]"
CCS(=O)(=O)Nc1cc(C(=O)O)ccc1C,inactive: -2.95%,

# Grouped by structure, those above containing an NH in an aromatic ring
SMILES,"activity change, negative = inhibition",Potency
CC1CCc2sc(-c3n[nH]c(=S)o3)cc2C1 (configuration not stated),inactive: -2.86%,
CCOC(=O)c1ccc(N2C(=O)c3n[nH]c(-c4ccco4)c3C2c2ccc(OC)cc2OC)cc1 (configuration not stated),,"inconclusive: 2.24 µM [inhibitor, single point]"

# The results go on.

SMILES,"activity change, negative = inhibition",Potency
CC(C)Sc1nc(SCC(=O)NCc2ccco2)c2c3c(sc2n1)COC(C)(C)C3,,"inconclusive: 89.1 µM [inhibitor, single point]"
N#CC1=C(SCc2ccc(C#N)cc2)N=C(N)C(c2nc(-c3ccccc3)cs2)C12CCCCC2 (configuration not stated),,"inconclusive: 89.1 µM [inhibitor, single point]"
CCOc1cccc2cc(-c3nnc(NCc4ccc5c(c4)OCO5)s3)c(=O)oc12,,"inconclusive: 3.55 µM [inhibitor, full curve]"
CCn1cc(C2=NC(c3ccccc3)CO2)c2ccccc21 (configuration not stated),,"inconclusive: 89.1 µM [inhibitor, single point]"
O=C(NCc1ccco1)C1CC(c2cccc([N+](=O)[O-])c2)=NO1 (configuration not stated),,"inconclusive: 28.2 µM [inhibitor, single point]"
COc1ccc2cc3c(N)nn(C(=O)Cc4ccccc4OC)c3nc2c1,,"inconclusive: 79.4 µM [inhibitor, partial curve]"
S=c1[nH]nc(-c2cccnc2)n1/N=C/C=C/c1ccco1,,active: 12.6 µM
COc1ccc(CCC(=O)O)c(O)c1,,active: 39.8 µM
CCOC(=O)C1CN(S(C)(=O)=O)c2cc(CC(=O)OC)ccc2O1 (configuration not stated),inactive: -0.434%,
O=C(/C=C\c1ccco1)c1ccc(NC(=O)c2ccco2)cc1,,active: 10 µM
Cn1cccc1Cc1nnc(SCC(=O)NCc2ccco2)n1-c1ccc(F)cc1,inactive: -3.16%,
Cc1cc(C)cc(N=Cc2ccc([N+](=O)[O-])s2)c1,,"inconclusive: 6.31 µM [inhibitor, full curve, poor fit]"
O=C(CSc1nnc(Cc2cccs2)n1-c1ccccc1)NCc1ccc2c(c1)OCO2,,"inconclusive: 79.4 µM [inhibitor, single point]"
CCOc1ccc(NC(=NCc2ccc3c(c2)OCO3)SC2CC(=O)N(c3ccc(C(=O)O)cc3)C2=O)cc1 (configuration not stated),,"inconclusive: 89.1 µM [inhibitor, single point]"
Cc1ccccc1-c1nc(SCC(=O)NCc2ccc(F)cc2)c2c(=O)n(C)c(=O)n(C)c2n1,inactive: 3.94%,
O=C(CSc1oc(-c2ccccc2)nc1S(=O)(=O)c1ccc(Br)cc1)c1ccccc1,inactive: 5.68%,
O=C(NNC(=O)C1CCCN(S(=O)(=O)c2cccc(F)c2)C1)C1CC1 (configuration not stated),,"inconclusive: 89.1 µM [inhibitor, single point]"
Cc1ccc(NC(=O)Cn2c(O)c(N=NC(=O)c3cc4ccccc4cc3O)c3ccccc32)cc1,,"inconclusive: 5.01 µM [inhibitor, full curve]"
CC(=O)Nc1ccc(NC(=O)c2cc(=O)c3ccccc3o2)cc1,,"inconclusive: 89.1 µM [inhibitor, single point]"
COC(=O)c1ccc(C(c2c(C)[nH][nH]c2=O)c2c(C)[nH][nH]c2=O)cc1,inactive: 31%,
COC(=O)C1=C(C(=O)OC)C(c2cc([N+](=O)[O-])ccc2O)c2sc(=O)[nH]c2S1 (configuration not stated),,"inconclusive: 20 µM [inhibitor, full curve, poor fit]"
CC(=O)Nc1cccc(NC(=S)Nc2cccc(Cl)c2C)c1,inactive: -2.09%,
CCc1ccc(-n2nnc(-c3nsc(NC(=O)c4ccccc4Cl)n3)c2C)cc1,,"inconclusive: 39.8 µM [inhibitor, single point]"
CS(=O)(=O)N1CCN(c2ccccc2NC(=O)c2cccc3ccccc23)CC1,,"inconclusive: 100 µM [inhibitor, single point]"
